Measurements as given in PMC7819943, “Rice protein-binding microarrays: a tool to detect cis-acting elements near promoter regions in rice”.
The other results are listed elsewhere or left out.

Chains of the proteins cited; added tags and fusions are not shown.
UniProt Q0JBA9, entry or part of it: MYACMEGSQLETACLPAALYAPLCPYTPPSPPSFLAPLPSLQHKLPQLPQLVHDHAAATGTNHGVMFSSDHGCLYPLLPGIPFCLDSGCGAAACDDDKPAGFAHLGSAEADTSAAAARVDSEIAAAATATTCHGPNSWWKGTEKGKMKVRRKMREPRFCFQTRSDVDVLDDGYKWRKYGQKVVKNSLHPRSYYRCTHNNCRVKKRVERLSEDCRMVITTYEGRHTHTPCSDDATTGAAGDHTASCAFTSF

Target: OsWRKY34 (Oryza sativa, UniProt Q0JBA9 1-250)
Assay: protein-binding microarray (RPBM); PBS, 2% BSA, 51.3 ng/ul salmon testes DNA, 50 uM zinc acetate, 200 nM TF, 25 C, 1 h; high values mean tight binding
Settings: protein: recombinant; tags: N-terminal polyhistidine and DsRed monomer fusion (pET32a); label: CyDye5-dUTP incorporated in the synthesized complementary strand; 3' TTTTT single-stranded linker to array surface; dsDNA, one strand shown
Procedure, shortened: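 An Axon 4000B scanner gave the binding signal as per-feature fluorescence intensity in arbitrary units. This followed washing of a custom Agilent array that had been incubated for 1 h at 25 °C with 200 nM protein in PBS, 2% BSA, salmon testes DNA and 50 µM zinc acetate. The proteins were transcription factors fused at the N-terminus to polyhistidine and DsRed, expressed in E. coli BL21-CodonPlus and purified on Ni–NTA.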

| Sequence | binding signal |
| --- | --- |
| TTTATTGGCCCCTTGCTCTCTGCTGCCTTTATCATCACCACGGAGTCACCTAGTGCAG | 8120 fluorescence intensity (a.u.) |
| AGCAGGTTCTACCGAAATGATTTACAATTTTGGCCGTGTTCGGAGTCACCTAGTGCAG | 8320 fluorescence intensity (a.u.) |
| ATTCCGTGCTCACCTGAACCGCTGAACGAATATGCGCATACGGAGTCACCTAGTGCAG | 9300 fluorescence intensity (a.u.) |
| TAACTTATTTGGGGCATGTAATCAGTGCTGCTGGGGTATCCGGAGTCACCTAGTGCAG | 8850 fluorescence intensity (a.u.) |
| CCTTTTTGTCCTGTTATAAAATTCACTGCCTGAATTCAGACGGAGTCACCTAGTGCAG | 8280 fluorescence intensity (a.u.) |
| GCTATCTCCATCGTCTCTTTCCTTGACCACAGCGGCAATGCGGAGTCACCTAGTGCAG | 9860 fluorescence intensity (a.u.) |
| AAGGTTGTCCTGTATATCCTCTCGAGGTCTTGATTAGCTTCGGAGTCACCTAGTGCAG | 9560 fluorescence intensity (a.u.) |
| ACCGCGTCTACTCCACAGAGCTCTTCTTCTTCCACGCGCCCGGAGTCACCTAGTGCAG | 10000 fluorescence intensity (a.u.) |
| TAAATTATTTTTCGTTTGTAAATACACTGTTTCGCTTATTCGGAGTCACCTAGTGCAG | 10200 fluorescence intensity (a.u.) |
| TATCTTGGTCTGGTCACTTTTATAATGTTTGGGTGCGTTTCGGAGTCACCTAGTGCAG | 9910 fluorescence intensity (a.u.) |
| AATCACTTCCGTACTTTTTTTTCTATAGTGGCCTTTTACACGGAGTCACCTAGTGCAG | 13000 fluorescence intensity (a.u.) |
| AGACATTCTCCATTTTCTTTCTTCTCTTCACTCACACTCACGGAGTCACCTAGTGCAG | 8800 fluorescence intensity (a.u.) |
| ATGAGCGGGTCGTGTGTTCGTGTCCACCCCTATCCCCTCACGGAGTCACCTAGTGCAG | 9130 fluorescence intensity (a.u.) |
| TACCCTTATATGTCAAAGGGGTGGCCTTGTTCTATATGTTCGGAGTCACCTAGTGCAG | 8240 fluorescence intensity (a.u.) |
| CTCAGCTTAGGCGATTGCTTCTCATGGGTGTTTCATCCTTCGGAGTCACCTAGTGCAG | 8540 fluorescence intensity (a.u.) |
| GTGTTCTGCGTTCTTATGTACAGGGCCTCTACAAACTGCACGGAGTCACCTAGTGCAG | 10600 fluorescence intensity (a.u.) |
| CACTTACAAAACAGCACTGTCACTTCTCTCTCTCTCTCTCCGGAGTCACCTAGTGCAG | 9050 fluorescence intensity (a.u.) |
| GGATACCGCCCACAATACTGCCTTCGGAGTCGATTTGTACCGGAGTCACCTAGTGCAG | 8620 fluorescence intensity (a.u.) |
| GTGGGCCAATTCTGCAATCATCCACACAATCAGCCATCAACGGAGTCACCTAGTGCAG | 8180 fluorescence intensity (a.u.) |
| GGGTTTCGCGGATCGAGGGGCGCCGCGGCTAGGGTTTGGGCGGAGTCACCTAGTGCAG | 9080 fluorescence intensity (a.u.) |
| GTCTTTACCATGTCATCGTCCTTTATTTCTAAATGAAATTCGGAGTCACCTAGTGCAG | 10300 fluorescence intensity (a.u.) |

| Sequence | binding signal |
| --- | --- |
| AAAATTTCCGTACCGTTTTCACCCTTAATTCCTTCCCGTTCGGAGTCACCTAGTGCAG | 13400 fluorescence intensity (a.u.) |
| TGCTTGTTCCGGTTCCTTCCCAACCCTTTTGCAAGAACACCGGAGTCACCTAGTGCAG | 9120 fluorescence intensity (a.u.) |
| AATGGTTTGGATCTTTAAATATGCTGGGAGTTTAATTATACGGAGTCACCTAGTGCAG | 9250 fluorescence intensity (a.u.) |
| CTTGTGTGGGTGGTACTATTTGTGCTTGCTATAGCACAACCGGAGTCACCTAGTGCAG | 10700 fluorescence intensity (a.u.) |
| CACACCATTTCCTTTTTCTTTAGAAAATATCACACTATCACGGAGTCACCTAGTGCAG | 9060 fluorescence intensity (a.u.) |
| TTCCCGCCCTTTTCCCCTATATATATCGCTCGCCTCGGAGCGGAGTCACCTAGTGCAG | 8640 fluorescence intensity (a.u.) |
| CCCCGCGTCATTACTTCGTCTTCATCGCTGCCTTCCATGCCGGAGTCACCTAGTGCAG | 8300 fluorescence intensity (a.u.) |
| CCTCTCCTTCCATTGATCCTTTCACATCCTTTAATTTCTCCGGAGTCACCTAGTGCAG | 10800 fluorescence intensity (a.u.) |
| CCTGCGACTGCGACTTCTTCCTCTGCCTTCTGCTCTCTGCCGGAGTCACCTAGTGCAG | 9660 fluorescence intensity (a.u.) |
| AGGGGAAATTTTTTTGCTTTGCGCGTGGGAGAGAGAAGGACGGAGTCACCTAGTGCAG | 9360 fluorescence intensity (a.u.) |
| GGCTTGACCAACCACCGCGCGCGCCGCCGTCTTTCGCCGACGGAGTCACCTAGTGCAG | 10400 fluorescence intensity (a.u.) |
| GCCGCGCCCCATCCGGCCATCCGCCACCTCTCCGCCGCGCCGGAGTCACCTAGTGCAG | 9150 fluorescence intensity (a.u.) |
| AAGGATAAGGGGTTTGATTAGAAAAAATTGATCTATAAGTCGGAGTCACCTAGTGCAG | 8640 fluorescence intensity (a.u.) |
| GACGCTCTTGTCCCGGTTATGATTTGCACCTTTTTCTTTTCGGAGTCACCTAGTGCAG | 9120 fluorescence intensity (a.u.) |
| GGGAGTCGTTTTTGTTCTGTGTATGATATTTATGCTTTTCCGGAGTCACCTAGTGCAG | 13300 fluorescence intensity (a.u.) |
| CTGCTCATCGTCGCTTCTTCCTTGATCAGCCATCTCTATACGGAGTCACCTAGTGCAG | 8430 fluorescence intensity (a.u.) |
| ATGACTATTACTATGTTCCTGACATATTGCACACCCTAGACGGAGTCACCTAGTGCAG | 8270 fluorescence intensity (a.u.) |
| CTAAATTGTATTTCTATATGGACTTTGCTTTTTCTTTTTCCGGAGTCACCTAGTGCAG | 10900 fluorescence intensity (a.u.) |
| TGACGTCACTCAGGCAGTCAACTATCGTCACTCTACCACTCGGAGTCACCTAGTGCAG | 8540 fluorescence intensity (a.u.) |
| AGGAGGGAGCCATGGGTGGGAGGGGAAGGAGAGATGCGGACGGAGTCACCTAGTGCAG | 9440 fluorescence intensity (a.u.) |
| TTCGTCAATGTGCCATCCATCCAATGTATGCAACTGTCAACGGAGTCACCTAGTGCAG | 8090 fluorescence intensity (a.u.) |

Reformatted with each value named: entries from further up.
AATGGTTTGGATCTTTAAATATGCTGGGAGTTTAATTATACGGAGTCACCTAGTGCAG
  binding signal = 9250 fluorescence intensity (a.u.)
CTTGTGTGGGTGGTACTATTTGTGCTTGCTATAGCACAACCGGAGTCACCTAGTGCAG
  binding signal = 10700 fluorescence intensity (a.u.)
CACACCATTTCCTTTTTCTTTAGAAAATATCACACTATCACGGAGTCACCTAGTGCAG
  binding signal = 9060 fluorescence intensity (a.u.)
